In US20070082898A1, “5 Amino-2-carbonylthiophene derivatives for use as p38 map kinase inhibitors in the treatment of inflammatory diseases” (Astex Therapeutics Limited, priority 2003, published 2007):
Some entries share one result that the patent states for a list of compounds.

The chains behind the UniProt entries cited, without tags or fusion partners.
UniProt Q16539, whole entry: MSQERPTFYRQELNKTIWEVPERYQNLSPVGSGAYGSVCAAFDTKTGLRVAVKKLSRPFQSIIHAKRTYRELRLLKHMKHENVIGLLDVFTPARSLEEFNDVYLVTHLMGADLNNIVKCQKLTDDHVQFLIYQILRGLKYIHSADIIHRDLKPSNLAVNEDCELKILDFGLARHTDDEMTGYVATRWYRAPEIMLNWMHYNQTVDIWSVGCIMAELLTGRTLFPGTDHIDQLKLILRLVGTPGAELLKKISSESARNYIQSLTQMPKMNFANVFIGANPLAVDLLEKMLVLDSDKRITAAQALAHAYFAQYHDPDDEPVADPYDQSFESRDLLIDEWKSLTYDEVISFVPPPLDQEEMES

Biological target: a isoform of p38 MAP kinase (Homo sapiens, UniProt Q16539)
Assay: p38 MAP kinase inhibitory activity (33P-ATP / myelin basic protein filter assay)
Assay type: biochemical
Settings: MKK6-activated p38, MBP substrate

Row | SMILES | inhibition of p38 activity (qualitative)
1 | COC(=O)c1sc(NC(=O)c2cc(F)cc(N3CCOCC3)c2)c(C)c1Cl [Example 1C, 3-Chloro-5-(3-Fluoro-5-morpholin-4-yl-benzoylamino)-4-methyl-thiophene-2-carboxylic acid methyl ester] | inhibit p38 activity
2 | Cc1c(NC(=O)c2cc(F)cc(N3CCOCC3)c2)sc(C(=O)NCc2ccncc2)c1Cl [Example 13, N-[4-Chloro-3-methyl-5-(4-pyridylmethylaminocarbonyl)-thiophen-2-yl]-3-fluoro-5-morpholin-4-yl-benzamide] | inhibit p38 activity
3 | COC(=O)c1sc(NC(=O)Nc2cc(C(C)(C)C)nn2-c2ccc(F)cc2)c(C)c1Cl [Example 2A, 5-{3-[5-tert-butyl-2-(4-fluoro-phenyl)-2H-pyrazol-3-yl]-ureido}-3-chloro-4-methyl-thiophene-2-carboxylic acid methyl ester] | inhibit p38 activity
4 | Cc1c(NC(=O)c2cc(F)cc(N3CCOCC3)c2)sc(C(=O)Nc2ccc(F)cc2)c1Cl [Example 15, N-[4-Chloro-3-methyl-5-(4-fluorophenylaminocarbonyl)-thiophen-2-vl]-3-fluoro-5-morpholin-4-yl-benzamide] | inhibit p38 activity
5 | Cc1cc(NC(=O)c2cc(F)cc(N3CCOCC3)c2)sc1C(=O)N1CCOCC1 [Example 3C, 3-Fluoro-N-[4-methyl-5-(morpholin-4-carbonyl)-thiophen-2-yl]-5-mopholin-4-yl-benzamide] | inhibit p38 activity
6 | Cc1c(NC(=O)c2cc(F)cc(N3CCOCC3)c2)sc(C(=O)Nc2cnc(N)nc2)c1Cl [Example 18, N-[4-Chloro-3-methyl-5-(2-amino-primidin-5-ylaminocarbonyl)-thiophen-2-yl]-3-fluoro-5-morpholin-4-yl-benzamide] | inhibit p38 activity
7 | CCOC(=O)c1sc(NC(=O)c2cc(F)cc(N3CCOCC3)c2)cc1C [Example 3A, 5-(3-Fluoro-5-morpholin-4-yl-benzoylamino)-3-methyl-thiophene-2-carboxylic acid ethyl ester] | inhibit p38 activity
8 | Cc1c(NC(=O)c2cc(F)cc(N3CCOCC3)c2)sc(C(=O)N2CCOCC2)c1Cl [Example 1E, N-[4-Chloro-3-methyl-5-(morpholine-4-carbonyl)-thiophen-2-yl]-3-fluoro-5-morpholin4-yl-benzamide] | inhibit p38 activity
9 | Cc1c(NC(=O)c2ccc(F)cc2)sc(C(=O)N2CCOCC2)c1Cl [Example 8, N-[4-Chloro-3-methyl-5-(morpholine-4-carbonyl)-thiophen-2-yl]-4-fluorobenzamide] | inhibit p38 activity
10 | Cc1c(NC(=O)Nc2cc(C(C)(C)C)nn2-c2ccc(F)cc2)sc(C(=O)N2CCN(C)CC2)c1Cl [Example 11, 1-[5-tert-Butyl-2-(4-fluoro-phenyl)-2H-pyrazol-3-yl]-3-[4-chloro-3-methyl-5-(1-methylpiperazine-4-carbonyl)-thiophen-2-yl]-urea] | inhibit p38 activity
11 | Cc1c(NC(=O)c2ccc(F)cc2)sc(C(=O)Nc2ccc(F)cc2)c1Cl [Example 9, N-[4-Chloro-3-methyl-5-(4-fluorophenylaminocarbonyl)-thiophen-2-yl]-4-fluorobenzamide] | inhibit p38 activity
12 | Cc1c(NC(=O)Nc2cc(C(C)(C)C)nn2-c2ccc(F)cc2)sc(C(=O)NCc2ccncc2)c1Cl [Example 12, 1-[5-tert-Butyl-2-(4-fluoro-phenyl)-2H-pyrazol-3-yl]-3-[4-chloro-3-methyl-5-(4-pyridylmethylaminocarbonyl)-thiophen-2-yl]-urea] | inhibit p38 activity
13 | CC(C)(C)c1cc(NC(=O)Nc2ccc(C(=O)N3CCOCC3)s2)n(-c2ccc(F)cc2)n1 [Example 5, 1-[5-tert-Butyl-2-(4-fluorophenyl)-2H-pyrazol-3-yl]-3-[5-(morpholine-4-carbonyl)-thiophen-2-yl]-urea] | inhibit p38 activity
14 | Cc1nn(C)c(C)c1NC(=O)c1sc(NC(=O)c2cc(F)cc(N3CCOCC3)c2)c(C)c1Cl [Example 14, N-[4-Chloro-3-methyl-5-(2,3,5-trimethyl-2H-pyrazol-4-ylaminocarbonyl)-thiophen-2-yl]-3-fluoro-5-morpholin-4-yl-benzamide] | inhibit p38 activity
15 | Cc1c(NC(=O)Nc2cc(C(C)(C)C)nn2-c2ccc(F)cc2)sc(C(=O)N2CCOCC2)c1Cl [Example 2C, 1-[5-tert-Butyl-2-(4-fluoro-phenyl)-2H-pyrazol-3-yl]-3-[4-chloro-3-methyl-5-(morpholine-4-carbonyl)-thiophen-2-yl]-urea] | inhibit p38 activity
16 | Cc1c(NC(=O)c2cc(F)cc(N3CCOCC3)c2)sc(C(=O)N2CCN(C)CC2)c1Cl [Example 17, N-[4-Chloro-3-methyl-5-(1-methylpiperazin-4-ylaminocarbonyl)-thiophen-2-yl]-3-fluoro-5-morpholin-4-yl-benzamide] | inhibit p38 activity
17 | COC(=O)c1sc(NC(=O)c2ccc(F)cc2)c(C)c1Cl [Example 10, 3-Chloro-5-(4-fluorobenzoylamino)4-methyl-thiophene-2-carboxylic acid methyl ester] | inhibit p38 activity
18 | CCOC(=O)c1ccc(NC(=O)Nc2cc(C(C)(C)C)nn2-c2ccc(F)cc2)s1 [Example 4, 5-{3-[5-tert-butyl-2-(4-fluoro-phenyl)-2H-pyrazol-3-yl]-ureido}-thiophene-2-carboxylic acid ethyl ester] | inhibit p38 activity
19 | COC(=O)c1sc(NC(=O)c2ccc(F)cc2)c(C)c1C#N [Example 7, 3-Cyano-5-(4-fluorobenzoylamino)-4-methyl-thiophene-2-carboxylic acid methyl ester] | inhibit p38 activity
20 | COC(=O)c1sc(NC(=O)Nc2cc(C(C)(C)C)nn2-c2ccc(F)cc2)c(C#N)c1C [Example 6, 5-{3-[5-tert-butyl-2-(4-fluoro-phenyl)-2H-pyrazol-3-yl]-ureido}-3-methyl-4-cyano-thiophene-2-carboxylic acid methyl ester] | inhibit p38 activity
